# Results published in the supplement of paper PMC12823440, “Inhibitors supercharge kinase turnover through native proteolytic circuits” (Nature, 2025).
# Protein sequences, listed by entry. Tags and fused reporters are not part of them. Lines headed by an entry give the natural chain unless they say otherwise; changes in a name come on top.
# UniProt P09619, whole entry: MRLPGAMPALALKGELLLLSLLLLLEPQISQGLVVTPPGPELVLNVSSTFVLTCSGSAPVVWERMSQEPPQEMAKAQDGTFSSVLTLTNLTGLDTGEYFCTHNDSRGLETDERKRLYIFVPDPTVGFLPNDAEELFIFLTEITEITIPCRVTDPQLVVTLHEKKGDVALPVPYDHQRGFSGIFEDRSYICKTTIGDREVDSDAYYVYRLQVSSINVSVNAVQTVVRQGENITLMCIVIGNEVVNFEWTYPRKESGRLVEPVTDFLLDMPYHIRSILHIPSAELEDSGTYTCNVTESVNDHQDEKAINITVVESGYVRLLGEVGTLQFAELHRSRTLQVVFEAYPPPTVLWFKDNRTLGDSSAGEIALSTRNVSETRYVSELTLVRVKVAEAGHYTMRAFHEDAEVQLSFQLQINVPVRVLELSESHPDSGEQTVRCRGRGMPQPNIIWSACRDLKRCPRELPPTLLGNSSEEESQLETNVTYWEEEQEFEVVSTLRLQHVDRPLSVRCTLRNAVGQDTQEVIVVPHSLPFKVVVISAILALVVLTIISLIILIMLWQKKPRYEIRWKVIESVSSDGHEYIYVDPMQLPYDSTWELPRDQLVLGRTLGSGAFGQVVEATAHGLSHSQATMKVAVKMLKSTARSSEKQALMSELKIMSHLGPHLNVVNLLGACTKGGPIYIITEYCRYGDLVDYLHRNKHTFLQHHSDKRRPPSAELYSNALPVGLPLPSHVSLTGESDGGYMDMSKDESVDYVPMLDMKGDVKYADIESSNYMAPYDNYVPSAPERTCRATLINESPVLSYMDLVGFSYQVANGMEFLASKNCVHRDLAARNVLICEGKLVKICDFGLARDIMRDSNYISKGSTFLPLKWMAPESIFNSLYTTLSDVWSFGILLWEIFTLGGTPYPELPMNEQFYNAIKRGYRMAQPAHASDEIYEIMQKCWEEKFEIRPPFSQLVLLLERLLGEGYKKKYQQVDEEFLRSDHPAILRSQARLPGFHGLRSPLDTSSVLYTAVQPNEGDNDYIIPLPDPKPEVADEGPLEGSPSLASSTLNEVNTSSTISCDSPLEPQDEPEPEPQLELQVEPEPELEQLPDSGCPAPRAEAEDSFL
# UniProt O75460: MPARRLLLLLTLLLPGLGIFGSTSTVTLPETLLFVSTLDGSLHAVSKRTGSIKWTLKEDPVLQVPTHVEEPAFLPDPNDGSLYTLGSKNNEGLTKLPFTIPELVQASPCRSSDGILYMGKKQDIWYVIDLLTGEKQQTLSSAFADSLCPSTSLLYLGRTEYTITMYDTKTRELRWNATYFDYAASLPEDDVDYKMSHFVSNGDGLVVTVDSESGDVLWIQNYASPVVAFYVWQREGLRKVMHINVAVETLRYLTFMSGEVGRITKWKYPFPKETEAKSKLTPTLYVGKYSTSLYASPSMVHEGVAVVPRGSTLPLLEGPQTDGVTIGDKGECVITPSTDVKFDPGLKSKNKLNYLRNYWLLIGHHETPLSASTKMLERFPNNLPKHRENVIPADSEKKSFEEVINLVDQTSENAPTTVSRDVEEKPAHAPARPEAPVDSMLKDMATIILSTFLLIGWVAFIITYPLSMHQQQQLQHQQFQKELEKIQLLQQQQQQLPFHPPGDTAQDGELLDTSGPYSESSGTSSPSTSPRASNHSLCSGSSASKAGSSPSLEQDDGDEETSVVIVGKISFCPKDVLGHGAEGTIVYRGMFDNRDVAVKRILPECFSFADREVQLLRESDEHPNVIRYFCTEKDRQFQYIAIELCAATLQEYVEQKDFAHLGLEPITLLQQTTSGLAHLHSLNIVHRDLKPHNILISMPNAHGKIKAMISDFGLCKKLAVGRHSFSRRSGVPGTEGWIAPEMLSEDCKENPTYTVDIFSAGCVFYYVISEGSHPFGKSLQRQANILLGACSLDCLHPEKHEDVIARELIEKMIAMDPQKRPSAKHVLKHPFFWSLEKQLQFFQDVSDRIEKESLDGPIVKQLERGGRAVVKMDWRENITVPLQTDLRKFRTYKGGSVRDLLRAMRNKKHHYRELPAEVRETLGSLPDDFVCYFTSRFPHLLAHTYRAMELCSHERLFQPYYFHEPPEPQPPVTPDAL
# UniProt P28482, whole entry: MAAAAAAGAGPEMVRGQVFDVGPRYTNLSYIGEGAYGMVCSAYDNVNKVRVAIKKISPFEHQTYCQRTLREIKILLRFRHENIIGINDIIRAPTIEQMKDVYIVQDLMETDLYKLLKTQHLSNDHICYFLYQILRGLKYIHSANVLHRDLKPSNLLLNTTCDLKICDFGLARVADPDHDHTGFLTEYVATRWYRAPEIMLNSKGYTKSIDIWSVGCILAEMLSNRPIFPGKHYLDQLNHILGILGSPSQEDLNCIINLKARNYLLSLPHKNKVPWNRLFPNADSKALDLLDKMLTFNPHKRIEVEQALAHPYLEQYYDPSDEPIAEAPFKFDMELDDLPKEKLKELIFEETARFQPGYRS
# UniProt Q9UQB9: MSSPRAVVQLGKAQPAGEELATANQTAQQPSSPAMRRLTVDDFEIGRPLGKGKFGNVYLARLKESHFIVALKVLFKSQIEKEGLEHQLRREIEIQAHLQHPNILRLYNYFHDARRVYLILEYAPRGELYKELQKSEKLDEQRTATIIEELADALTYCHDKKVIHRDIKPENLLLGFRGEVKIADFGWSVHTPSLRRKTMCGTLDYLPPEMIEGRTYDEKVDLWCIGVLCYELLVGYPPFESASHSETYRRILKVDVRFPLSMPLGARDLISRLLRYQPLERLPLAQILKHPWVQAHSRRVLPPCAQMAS
# UniProt P07948: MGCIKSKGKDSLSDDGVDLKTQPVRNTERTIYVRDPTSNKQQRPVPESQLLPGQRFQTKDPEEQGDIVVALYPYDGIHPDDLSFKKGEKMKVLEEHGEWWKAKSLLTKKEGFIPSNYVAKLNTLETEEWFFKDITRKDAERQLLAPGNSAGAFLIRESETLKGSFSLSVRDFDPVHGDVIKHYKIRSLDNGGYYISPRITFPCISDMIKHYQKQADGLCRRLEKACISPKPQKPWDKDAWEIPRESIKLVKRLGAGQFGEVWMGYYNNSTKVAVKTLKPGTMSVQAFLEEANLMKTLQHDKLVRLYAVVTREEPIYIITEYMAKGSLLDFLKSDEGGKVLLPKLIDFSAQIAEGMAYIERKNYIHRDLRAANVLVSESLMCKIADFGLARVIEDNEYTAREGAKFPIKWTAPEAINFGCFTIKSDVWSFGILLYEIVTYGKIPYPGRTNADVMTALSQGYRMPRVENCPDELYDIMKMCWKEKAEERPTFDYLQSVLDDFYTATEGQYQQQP
# UniProt Q6PHR2: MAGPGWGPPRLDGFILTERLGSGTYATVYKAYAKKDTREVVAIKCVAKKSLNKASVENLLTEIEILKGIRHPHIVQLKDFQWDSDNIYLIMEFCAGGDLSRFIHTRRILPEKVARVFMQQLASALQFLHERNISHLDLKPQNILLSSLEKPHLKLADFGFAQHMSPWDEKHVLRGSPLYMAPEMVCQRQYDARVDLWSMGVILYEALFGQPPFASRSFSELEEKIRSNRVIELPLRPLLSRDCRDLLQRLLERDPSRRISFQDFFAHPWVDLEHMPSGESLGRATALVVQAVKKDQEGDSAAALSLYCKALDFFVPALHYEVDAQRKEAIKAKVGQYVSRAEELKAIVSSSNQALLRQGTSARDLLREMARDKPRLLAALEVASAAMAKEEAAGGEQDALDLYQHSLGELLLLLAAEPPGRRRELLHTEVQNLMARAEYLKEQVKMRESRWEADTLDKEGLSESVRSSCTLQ
# UniProt P49137, whole entry, looked up: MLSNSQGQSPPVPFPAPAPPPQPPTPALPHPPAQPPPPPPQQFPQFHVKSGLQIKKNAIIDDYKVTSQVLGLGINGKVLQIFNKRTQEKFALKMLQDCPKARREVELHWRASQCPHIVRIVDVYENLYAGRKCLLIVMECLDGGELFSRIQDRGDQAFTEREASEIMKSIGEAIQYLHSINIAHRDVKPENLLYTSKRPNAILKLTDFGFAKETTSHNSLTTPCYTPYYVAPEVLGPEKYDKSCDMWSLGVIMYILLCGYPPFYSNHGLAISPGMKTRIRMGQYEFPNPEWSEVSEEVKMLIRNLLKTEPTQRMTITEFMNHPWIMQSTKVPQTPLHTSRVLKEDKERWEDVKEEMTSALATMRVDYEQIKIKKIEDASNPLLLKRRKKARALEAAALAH
# UniProt Q06187: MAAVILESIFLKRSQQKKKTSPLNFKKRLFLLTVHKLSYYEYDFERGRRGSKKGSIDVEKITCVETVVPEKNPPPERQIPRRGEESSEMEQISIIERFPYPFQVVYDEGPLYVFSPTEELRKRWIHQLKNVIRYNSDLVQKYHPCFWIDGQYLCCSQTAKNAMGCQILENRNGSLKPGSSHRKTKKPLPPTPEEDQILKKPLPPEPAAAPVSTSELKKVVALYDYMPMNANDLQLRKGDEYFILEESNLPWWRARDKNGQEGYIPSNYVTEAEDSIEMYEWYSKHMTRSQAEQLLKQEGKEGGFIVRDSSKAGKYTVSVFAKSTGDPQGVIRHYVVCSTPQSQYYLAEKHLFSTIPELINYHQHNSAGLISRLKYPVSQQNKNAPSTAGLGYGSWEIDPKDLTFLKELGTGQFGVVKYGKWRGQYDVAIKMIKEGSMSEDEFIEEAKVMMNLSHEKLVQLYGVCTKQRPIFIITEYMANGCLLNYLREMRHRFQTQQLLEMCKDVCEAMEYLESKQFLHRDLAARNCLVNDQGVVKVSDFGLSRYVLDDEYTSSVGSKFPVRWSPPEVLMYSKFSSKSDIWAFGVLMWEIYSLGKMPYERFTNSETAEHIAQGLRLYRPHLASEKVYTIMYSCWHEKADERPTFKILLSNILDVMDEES
# UniProt O15530: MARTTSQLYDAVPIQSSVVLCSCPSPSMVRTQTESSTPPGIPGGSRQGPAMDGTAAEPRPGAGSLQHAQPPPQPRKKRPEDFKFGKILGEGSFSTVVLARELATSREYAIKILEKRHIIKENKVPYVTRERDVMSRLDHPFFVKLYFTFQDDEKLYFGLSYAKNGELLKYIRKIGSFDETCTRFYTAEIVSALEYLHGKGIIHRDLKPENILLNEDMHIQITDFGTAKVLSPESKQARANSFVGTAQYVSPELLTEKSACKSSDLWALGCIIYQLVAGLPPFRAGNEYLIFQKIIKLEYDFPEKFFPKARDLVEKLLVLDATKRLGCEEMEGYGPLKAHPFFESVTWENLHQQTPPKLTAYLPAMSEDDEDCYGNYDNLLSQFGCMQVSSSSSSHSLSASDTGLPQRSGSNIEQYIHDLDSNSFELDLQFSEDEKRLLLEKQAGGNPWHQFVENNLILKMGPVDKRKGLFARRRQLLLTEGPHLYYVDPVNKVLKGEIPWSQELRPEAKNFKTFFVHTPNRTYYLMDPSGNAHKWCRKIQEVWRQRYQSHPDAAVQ
# UniProt Q13131: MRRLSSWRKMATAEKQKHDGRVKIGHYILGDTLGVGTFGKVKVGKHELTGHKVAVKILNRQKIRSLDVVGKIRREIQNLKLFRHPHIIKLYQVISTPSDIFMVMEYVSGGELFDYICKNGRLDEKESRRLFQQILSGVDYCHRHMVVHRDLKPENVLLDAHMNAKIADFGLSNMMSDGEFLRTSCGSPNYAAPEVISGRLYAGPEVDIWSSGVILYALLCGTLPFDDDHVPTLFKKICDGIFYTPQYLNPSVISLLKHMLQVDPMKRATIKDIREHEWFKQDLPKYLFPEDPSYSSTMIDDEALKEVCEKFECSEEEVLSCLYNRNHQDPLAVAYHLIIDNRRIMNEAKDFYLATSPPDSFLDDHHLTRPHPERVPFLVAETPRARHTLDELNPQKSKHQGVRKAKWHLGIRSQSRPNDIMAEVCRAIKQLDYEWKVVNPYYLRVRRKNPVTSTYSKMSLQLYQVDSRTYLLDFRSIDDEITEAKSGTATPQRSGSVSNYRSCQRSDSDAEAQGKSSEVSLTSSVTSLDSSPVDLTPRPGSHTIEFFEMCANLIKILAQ
# The other results are listed elsewhere or left out. The calls rarely recur for the same compound in another form.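 Kinases, fused to nanoluciferase, were expressed in K562 cells; luminescence was measured every 4 h from 2 to 18 h as percent of control (DMSO = 100%, positive control = 0%). A time point is decreased if signal falls significantly (2 sigma). Hits were called by the authors by a rule that is not shown; the count of time points alone does not decide it.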
# Columns and labels:
# Assay in all cases: number of time points (of 5) at which kinase-Nluc abundance scored as decreased, DMSO-normalised (count); higher = more persistent destabilization
# [1] = compound: Clc1ccc(C2(c3ccc(-c4cn[nH]c4)cc3)CCNCC2)cc1; conditions: 10 µM; K562; 2-18 h
# [2] = compound: Cn1cc(-c2cnc3ccc4ccc(CS(=O)(=O)NCc5ccccn5)cc4c(=O)c3c2)cn1 [MK-8033 (hydrochloride)]; conditions: 10 µM; K562; 2-18 h
# [3] = compound: Cn1cc(-c2cnc3ccc4ccc(CS(=O)(=O)NCc5ccccn5)cc4c(=O)c3c2)cn1; conditions: 10 µM; K562; 2-18 h
# [4] = compound: Cn1ncc(Cl)c1-c1cc(C(=O)N[C@H](CN)Cc2cccc(F)c2)sc1Cl [Afuresertib (hydrochloride)]; conditions: 10 µM; K562; 2-18 h
# [5] = compound: Cn1ncc(Cl)c1-c1cc(C(=O)N[C@H](CN)Cc2cccc(F)c2)sc1Cl [Afuresertib]; conditions: 10 µM; K562; 2-18 h
# [6] = compound: FC(F)(F)c1ccc(CNc2ccc(Cc3c[nH]c4ncc(Cl)cc34)cn2)cn1 [Pexidartinib (hydrochloride)]; conditions: 10 µM; K562; 2-18 h
# [7] = compound: FC(F)(F)c1ccc(CNc2ccc(Cc3c[nH]c4ncc(Cl)cc34)cn2)cn1 [Pexidartinib]; conditions: 10 µM; K562; 2-18 h
# [8] = compound: N#CCC1(n2cc(-c3ncnc4[nH]ccc34)cn2)CN(C2CCN(C(=O)c3ccnc(C(F)(F)F)c3F)CC2)C1 [Itacitinib adipate]; conditions: 10 µM; K562; 2-18 h
# [9] = compound: N#CCC1(n2cc(-c3ncnc4[nH]ccc34)cn2)CN(C2CCN(C(=O)c3ccnc(C(F)(F)F)c3F)CC2)C1 [Itacitinib]; conditions: 10 µM; K562; 2-18 h
# [10] = compound: N#CCNC(=O)c1ccc(-c2ccnc(Nc3ccc(N4CCOCC4)cc3)n2)cc1 [Momelotinib sulfate]; conditions: 10 µM; K562; 2-18 h
# [11] = compound: N#CCNC(=O)c1ccc(-c2ccnc(Nc3ccc(N4CCOCC4)cc3)n2)cc1 [Momelotinib]; conditions: 10 µM; K562; 2-18 h
# [12] = compound: N#CC[C@H](C1CCCC1)n1cc(-c2ncnc3[nH]ccc23)cn1 [Ruxolitinib (phosphate)]; conditions: 10 µM; K562; 2-18 h
# [13] = compound: N#CC[C@H](C1CCCC1)n1cc(-c2ncnc3[nH]ccc23)cn1 [Ruxolitinib]; conditions: 10 µM; K562; 2-18 h
# [14] = compound: N=C(N)NC(=O)c1nc(Cl)c(N)nc1N [Amiloride (hydrochloride)]; conditions: 10 µM; K562; 2-18 h
# [15] = compound: N=C(N)NC(=O)c1nc(Cl)c(N)nc1N [Amiloride hydrochloride dihydrate]; conditions: 10 µM; K562; 2-18 h
# [16] = compound: Nc1cncc(-c2cn3ccnc3c(Nc3ccc(N4CCN(C5COC5)CC4)cc3)n2)n1 [Lanraplenib (succinate)]; conditions: 10 µM; K562; 2-18 h
# [17] = compound: Nc1cncc(-c2cn3ccnc3c(Nc3ccc(N4CCN(C5COC5)CC4)cc3)n2)n1 [Lanraplenib]; conditions: 10 µM; K562; 2-18 h
# [18] = compound: Nc1ncnc2c1c(-c1ccc(Oc3ccccc3)cc1)nn2[C@@H]1CCCNC1 [IBT6A (hydrochloride)]; conditions: 2.5 µM; K562; 2-18 h
# [19] = compound: Nc1ncnc2c1c(-c1ccc(Oc3ccccc3)cc1)nn2[C@@H]1CCCNC1; conditions: 2.5 µM; K562; 2-18 h
# [20] = compound: O=C(Nc1ccncc1)Nc1ccc(-c2nc(N3CCOCC3)nc(N3C4CCC3COC4)n2)cc1 [PKI-179 (hydrochloride)]; conditions: 2.5 µM; K562; 2-18 h
Target,number of time points [1],number of time points [2],number of time points [3],number of time points [4],number of time points [5],number of time points [6],number of time points [7],number of time points [8],number of time points [9],number of time points [10],number of time points [11],number of time points [12],number of time points [13],number of time points [14],number of time points [15],number of time points [16],number of time points [17],number of time points [18],number of time points [19],number of time points [20]
FYN (UniProt P06241),0,0,0,1,0,0,0,0,0,0,0,0,0,0,0,0,0,0,0,4
PDGFRB (UniProt P09619),0,0,0,0,0,0,0,0,0,0,0,0,0,0,0,0,0,0,0,0
PRKCA (UniProt P17252),0,0,0,0,0,0,0,0,0,0,0,0,0,0,0,0,0,0,0,0
RAF1_S257L (clone: RAF1_mut) (UniProt P04049),4,0,0,2,0,0,0,0,0,0,0,0,0,0,0,0,0,0,0,3
ERN1 (UniProt O75460),0,0,0,0,0,0,0,0,0,0,0,0,0,0,0,0,0,0,0,2
MAPK1 (UniProt P28482),0,0,0,0,0,0,0,0,0,0,0,0,0,0,0,0,0,0,0,3
GSK3A (UniProt P49840),0,0,0,0,0,0,0,0,0,0,0,0,0,0,0,0,0,0,0,0
MAP4K2 (UniProt Q12851),0,0,0,0,0,0,0,0,0,0,0,0,0,0,0,0,0,0,0,0
AURKC (UniProt Q9UQB9),0,0,0,0,0,0,0,0,0,0,0,0,0,0,0,0,0,0,0,2
LYN (UniProt P07948),2,0,0,0,0,0,0,0,0,0,0,0,0,0,0,0,0,0,0,3
ULK3 (UniProt Q6PHR2),1,0,0,2,0,0,0,0,0,0,0,0,0,0,0,0,0,0,0,3
MAPKAPK2 (UniProt P49137),0,0,0,0,0,0,0,0,0,0,0,0,0,0,0,0,0,0,0,0
EGFR_L718V (UniProt P00533),0,0,0,0,0,0,0,0,0,0,0,0,0,0,0,0,0,0,0,0
BTK (UniProt Q06187),0,0,0,0,0,0,0,0,0,0,0,0,0,0,0,0,0,0,0,0
FLT3 (UniProt P36888),0,0,0,0,0,0,0,0,0,0,0,0,0,0,0,0,0,0,0,4
STK38 (UniProt Q15208),0,0,0,0,0,0,0,0,0,0,0,0,0,0,0,0,0,0,0,1
CDK5 (UniProt Q00535),0,0,0,0,0,0,0,0,0,0,0,0,0,0,0,0,0,0,0,0
PDPK1 (UniProt O15530),2,1,0,0,0,0,0,0,0,1,0,0,0,0,0,0,0,0,0,4
ROR2 (UniProt Q01974),0,0,0,0,0,0,0,0,0,0,0,0,0,0,0,0,0,0,0,2
PDK1 (UniProt Q15118),0,0,0,0,0,0,0,0,0,0,0,0,0,0,0,0,0,0,0,0
HER2 (UniProt P04626),2,0,0,0,0,0,0,0,0,0,0,0,0,0,0,0,0,0,0,3
MAP2K2 (UniProt P36507),0,0,0,0,0,0,0,0,0,0,0,0,0,0,0,0,0,0,0,0
BRAF (UniProt P15056),1,0,0,0,0,0,0,0,0,0,0,0,0,0,0,0,0,0,0,3
CDK10 (UniProt Q15131),0,0,0,0,0,0,0,0,0,0,0,0,0,0,0,0,0,0,0,4
CSF1R (UniProt P07333),0,0,0,0,0,0,0,0,0,0,0,0,0,0,0,0,0,0,0,4
EPHA2 (UniProt P29317),0,0,0,0,0,0,0,0,0,0,0,0,0,0,0,0,0,0,0,0
PRKAA1 (UniProt Q13131),0,0,0,0,0,0,0,0,0,0,0,0,0,0,0,0,0,0,0,3
ABL1 (UniProt P00519),4,0,0,4,0,0,0,0,0,0,0,0,0,0,0,0,0,0,0,5
